Experimental data reported in patent publication US20100193777A1, “METHOD OF PRODUCING A DESUBSTITUTED COMPOUND, ORGANIC SEMICONDUCTOR FILM AND METHOD OF PRODUCING THE SAME” (FUJIFILM Corporation, priority 2007, published 2010).

Test: FET characteristics of cast thin film on bottom contact-type substrate
Details: for carrier mobility: film cast from pure water solution, after heat treatment
[1] = sample from chloroform coating liquid
[2] = sample from pure water coating liquid

Molecule	FET characteristics after heat treatment [1]	FET characteristics before heat treatment [1]	carrier mobility	FET characteristics before heat treatment [2]	FET characteristics after heat treatment [2]
[Cu+2].c1ccc2c(c1)-c1nc-2nc2[n-]c(nc3nc(nc4[n-]c(n1)c1ccccc41)-c1ccccc1-3)c1ccccc21 [cupper phthalocyanine]	no FET characteristics	no FET characteristics	–	–	–
metal-free phthalocyanine-tetrasulfonic acid [Exemplified compound (54)]	–	–	2.7×10^−6 cm^2/Vs	no FET characteristics	–
c1ccc2c(c1)-c1nc-2nc2[nH]c(nc3nc(nc4[nH]c(n1)c1ccccc41)-c1ccccc1-3)c1ccccc21 [metal-free phthalocyanine]	no FET characteristics	no FET characteristics	–	no FET characteristics	no FET characteristics
[Zn+2].c1ccc2c(c1)-c1nc-2nc2[n-]c(nc3nc([n-]c4nc(n1)-c1ccccc1-4)-c1ccccc1-3)c1ccccc21 [zinc phthalocyanine]	no FET characteristics	no FET characteristics	–	no FET characteristics	no FET characteristics
zinc phthalocyanine-tetrasulfonic acid [Exemplified compound (53)]	–	–	1.1×10^−7 cm^2/Vs	no FET characteristics	–
